Measured values as given in PubChem BioAssay AID290 (DTP/NCI, 2004).
The list is a part of this screen's results and no random one: it gathers tests that were run many times, whatever their T/C, doses with no T/C, and many T/C values between a quarter and a half above the control. Other doses and runs of a compound stand elsewhere. T/C gives the treated animals as a percentage of the vehicle group. Some entries give survivors of the animals treated and no T/C: the source holds a T/C of zero for them, seemingly a mark for toxic or unscored doses. Counts of survivors are from the toxicity check (mostly the fifth day) where no day follows; animals may have died later. Schedule codes are those of the source, read here as Q, the interval in days (D) or hours (H), X, the number of doses.

Tested on: mice, P1798 lymphosarcoma sc, survival or tumor weight T/C
Assay: NCI In Vivo Anticancer Drug Screen. Data for tumor model P1798 Lymphosarcoma (subcutaneous) in unknown mice
Conditions: T/C endpoint: mean tumor weight, schedule: Q01DX010 (ip), higher T/C = larger tumour
Experimental: The antitumor activity of compounds was measured in mice bearing transplantable tumors. Survival or tumor size were measured and the results are expressed as the measurement made in the treated group (T) divided by the measurement made in the vehicle treated control group (C). The tumor model used in this assay is P1798 Lymphosarcoma (subcutaneous) in unknown mice

## CCCCCCCCCCCCCCCCC(C(=O)O)C(O)(CC(=O)O)C(=O)O (stereo unspecified)
dose: 50.0 mg/kg/injection, vehicle: carboxymethylcellulose (CMC)
  survivor count: 6 of 10
dose: 100.0 mg/kg/injection, vehicle: carboxymethylcellulose (CMC)
  survivor count: 0 of 10

## CN(C)c1ccc(Nc2c3ccccc3nc3ccccc23)cc1
dose: 12.5 mg/kg/injection, vehicle: carboxymethylcellulose (CMC)
  survivor count: 0 of 10
dose: 200.0 mg/kg/injection, vehicle: carboxymethylcellulose (CMC)
  survivor count: 0 of 10
dose: 400.0 mg/kg/injection, vehicle: carboxymethylcellulose (CMC)
  survivor count: 0 of 10

## CCCNc1ncnc2[nH]ncc12
dose: 20.0 mg/kg/injection, vehicle: water
  survivor count: 3 of 10
dose: 40.0 mg/kg/injection, vehicle: water
  survivor count: 0 of 10

## Nc1nc(=S)c2ncn(C3OC(CO)C(O)C3O)c2[nH]1 (stereo unspecified)
dose: 5.0 mg/kg/injection, vehicle: carboxymethylcellulose (CMC)
  survivor count: 0 of 10
dose: 8.0 mg/kg/injection, vehicle: saline
  survivor count: 3 of 6
dose: 16.0 mg/kg/injection, vehicle: saline
  survivor count: 1 of 6

## CN(C)c1ccc(/C=C/c2ccnc3ccccc23)cc1
dose: 31.2 mg/kg/injection, vehicle: water
  survivor count: 4 of 10
dose: 62.5 mg/kg/injection, vehicle: water
  survivor count: 0 of 10
dose: 125.0 mg/kg/injection, vehicle: water
  survivor count: 0 of 10
dose: 250.0 mg/kg/injection, vehicle: water
  survivor count: 0 of 10

## Clc1ncnc2nc[nH]c12
dose: 500.0 mg/kg/injection, vehicle: carboxymethylcellulose (CMC)
  survivor count: 2 of 10
dose: 1000.0 mg/kg/injection, vehicle: carboxymethylcellulose (CMC)
  survivor count: 0 of 10
